# Paper PMC2755476, “The Sam domain of the lipid phosphatase Ship2 adopts a common model to interact with Arap3-Sam and EphA2-Sam” (BMC Structural Biology, 2009)
# Protein sequences, listed by entry. Tags and fused reporters are not part of them. Residues count along the entry.
# UniProt P29317, residues 904-968: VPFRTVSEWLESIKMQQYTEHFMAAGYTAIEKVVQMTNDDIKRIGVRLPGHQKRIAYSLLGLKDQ
# These are yes or no findings as the source states them, for the method shown. Some results given as binding are weak or reduced against the parent protein; the word gives no strength.
# Biological target: Sam domain of the Ephrin A2 receptor (EphA2-Sam) (UniProt P29317)
# Test: NMR titration; 2D [1H,15N]-HSQC displacement experiment; 15N EphA2-Sam, then unlabeled Ship2-Sam, then unlabeled Arap3-Sam; final ratio EphA2-Sam/Ship2-Sam/Arap3-Sam 1:1.8:3.2; both purified
binder,measurement,value
"Sam domain of Ship2 (Src homology 2 domain-containing phosphoinositide-5-phosphatase 2) (domain or fragment, UniProt O15357 1194-1258) SGLGEAGMSAWLRAIGLERYEEGLVHNGWDDLEFLSDITEEDLEEAGVQDPAHKRLLLDTLQLSK",binding,binds
